Test results published in PubChem BioAssay AID485298 (National Center for Advancing Translational Sciences (NCATS), 2010).
The whole screen tested about 320,000 compounds, of which about 740 (0.23%) were called active. Inconclusive means that the source gave no clear call. Such entries were picked first, then a sample of the others. Calls come from the whole dose curve; as a rule, active = well fitted activation curve with a large enough effect; inconclusive = small, poorly fitted or top-dose-only effect; inactive = no such curve, though single readings can be large or run the other way. Potencies of inconclusive entries are doubtful fits and often do not repeat.

Test: qHTS Assay for Small Molecule Inhibitors of Mitochondrial Division or Activators of Mitochondrial Fusion; note: nearly all actives have a fitted effect of over 45% in size;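 for growth rescue (activation): temperature-sensitive fusion mutants such as fzo1-1 at 37 °C on non-fermentable ethanol glycerol medium; % of control where 0% means no effect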
Settings: S. cerevisiae fusion-defective mutant growth rescue, CellTiterGlo 48 h; growth rescue (activation): at 46.1 µM (top of the series) unless noted
Outline: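 Yeast fusion mutant, YPEG (non-fermentable carbon), compound, 48 h at 37C non-permissive; CellTiterGlo added, 10 min RT, luminescence read. Rescued growth = division inhibition.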
Potency is the fitted concentration of half-maximal effect.

| Compound | Potency | growth rescue (activation) |
| --- | --- | --- |
| O=C(c1cccc(Cl)c1)N1CCC(=O)N(C(COCc2cccc(Cl)c2)Cc2ccccc2)CC1 (stereo not given) | inconclusive: 25.1 µM [activator, single point] | – |
| CCOC(=O)c1c(C)n(C)c2ccc(OCC(O)Cn3nc(C)c(Br)c3C)cc12 (stereo not given) | inconclusive: 20 µM [activator, single point] | – |
| COc1ccccc1-c1c(C(F)(F)F)oc2cc(OC(=O)c3ccc([N+](=O)[O-])cc3)ccc2c1=O | inconclusive: 17.8 µM [activator, partial curve] | – |
| COc1ccc(CNC(=O)c2nn(-c3ccccc3)cc2OC)cc1 | inconclusive: 10 µM [activator, partial curve] | – |
| Cc1nc2ccccc2c(=O)n1/N=C/c1cccs1 | inconclusive: 12.6 µM [activator, partial curve] | – |
| NS(=O)(=O)c1ccc(CCNC(=O)C(=O)NCC2OCCN2S(=O)(=O)c2ccc(Cl)cc2)cc1 (stereo not given) | – | inactive: 2.84% |
| CCOc1ncccc1C(=O)Nc1nc(C(C)(C)C)cs1 | inconclusive: 35.5 µM [activator, partial curve] | – |
| CCOC(=O)c1nc(Nc2cc(C)cc(C)c2)c2ccccc2n1 | – | inactive: 2.71% |
| CCC(C)(C)NC(=O)C(c1cccc(OC)c1OC)N(CC(C)C)C(=O)CCC(=O)Nc1cc(C)on1 (stereo not given) | inconclusive: 31.6 µM [activator, single point] | – |
| CCN(CC(=O)NCc1cccs1)C(=O)c1ccc(-c2cccc(C(F)(F)F)c2)o1 | inconclusive: 25.1 µM [activator, single point] | – |
| CCc1ccc(/C=N/NC(=S)NCCc2ccccc2)cc1 | – | inactive: -5.48% |
| N#C/C(=C\c1cccs1)Sc1nc2ccccc2s1 | inconclusive: 20 µM [activator, single point] | – |
| Cc1ccc(C2=NN(C(=O)CN3C(=O)c4ccccc4S3(=O)=O)C(c3ccco3)C2)cc1 (stereo not given) | inconclusive: 14.1 µM [activator, partial curve] | – |
| c1cnc2c(c1)ccc1cccnc12 | inconclusive: 25.9 µM [activator, single point] | – |
| COc1ccccc1N=Nc1nc(-c2ccccc2)c(-c2ccccc2)[nH]1 | inconclusive: 10 µM [activator, partial curve] | – |
| CCCCCCc1ccc(-c2ncc(N)cn2)cc1 | – | inactive: 20.1% |
| COc1ccc(NC(=O)CN2C(=O)COc3ccccc32)cc1OC | – | inactive: -2.28% |
| Cc1cc2n(n1)C(c1c[nH]c3ccccc13)Nc1ccccc1-2 (stereo not given) | inconclusive: 35.5 µM [activator, single point] | – |
| Cc1nnc2ccc(-c3cccc(NC(=O)c4ccco4)c3)nn12 | inconclusive: 35.5 µM [activator, single point] | – |
| Cc1ccc(-c2nc3cccnc3s2)cc1NS(=O)(=O)c1cccs1 | inconclusive: 17.8 µM [activator, single point] | – |
| Oc1ccc(CN2CCCCC2)nc1-c1ccccc1 | – | inactive: 0.108% |
| Cc1nn(Cc2c(F)c(F)c(F)c(F)c2F)c(C)c1NC(=O)c1ccc(COc2ccc(Cl)cc2Cl)o1 | inconclusive: 28.2 µM [activator, single point] | – |
| CN(CC(=O)Nc1cccc(F)c1)C(=O)c1cc(-c2cccs2)nn1-c1ccccc1 | inconclusive: 25.1 µM [activator, single point] | – |
| Cc1ccc(SCCNS(=O)(=O)c2ccc3c(c2)OCCO3)cc1 | inconclusive: 15.8 µM [activator, partial curve] | – |

| Compound | Potency | growth rescue (activation) |
| --- | --- | --- |
| Cn1c(/C=C/c2ccccc2)nc2ccccc2c1=O | inconclusive: 15.8 µM [activator, partial curve] | – |
| CC(C)c1nn2c(=O)cc(CSc3ccccc3NC(=O)c3ccccc3F)nc2s1 | inconclusive: 11.2 µM [activator, partial curve] | – |
| O=C(CCCc1ccccc1)Nc1ccnn1C1CCN(Cc2ccccc2)CC1 | inconclusive: 2.51 µM [activator, partial curve] | – |
| Cc1ccc(-c2ccc(SCC(=O)N3CCCc4ccccc43)nn2)cc1 | inconclusive: 15.8 µM [activator, partial curve] | – |
| COc1ccccc1N1CC(C)(C)C(=O)N(C(=O)c2ccc(C)cc2)C1=S | – | inactive: -3.77% |
| Nc1nonc1-n1nnc(C(=O)N/N=C/c2ccc(OCc3ccccc3)cc2)c1CN1CCCCC1 | – | inactive: -4.31% |
| COc1ccc(-c2cc(C(=O)NCCCN3CCOCC3)on2)cc1OC | inconclusive: 35.5 µM [activator, partial curve] | – |
| CCOc1ccc(CCNC(=O)C(C)N2C(=O)CC(C)(C)Sc3ccccc32)cc1 (stereo not given) | inconclusive: 11.2 µM [activator, single point] | – |
| O=S(=O)(NC1c2cccc3cccc(c23)C1Sc1ncccn1)c1ccc(Cl)cc1 (stereo not given) | inconclusive: 15.8 µM [activator, partial curve] | – |
| CC1(c2nnc(Cc3ccccc3)o2)CC(c2ccccc2F)=NO1 (stereo not given) | inconclusive: 17.8 µM [activator, single point] | – |
| CCCCCN1CC(=O)N2C(C)c3[nH]c4ccccc4c3C[C@H]2C1=O (stereo not given in full) | inconclusive: 20 µM [activator, partial curve] | – |
| Cc1ccc2c(C)c(C(=O)N(C)C(C)c3ccon3)oc2c1C (stereo not given) | – | inactive: -2.61% |
| O=C(c1ccc(OCC2CCCO2)cc1)N1CCc2ccccc2C1 (stereo not given) | – | inactive: 0.88% |
| Cc1sc(NC(=O)c2ccco2)nc1-c1ccc2c(c1)CC(C)N2C(=O)C1CC1 (stereo not given) | inconclusive: 25.1 µM [activator, single point] | – |
| O=C(CN1C(=O)c2cccnc2Oc2ccc(Cl)cc21)NCCc1ccccc1 | inconclusive: 10 µM [activator, partial curve] | – |
| CCCCC(=O)NCc1ccc2c(c1)cc(C)n2C | – | inactive: 0.99% |
| CC(=O)c1cccc(NC(=O)C(=O)c2cn(CC(=O)N3CCCCC3)c3ccccc23)c1 | inconclusive: 31.6 µM [activator, single point] | – |
| Clc1cc2c(cc1/C=N/Nc1nc(N3CCOCC3)nc(N3CCOCC3)n1)OCO2 | inconclusive: 31.6 µM [activator, single point] | – |
| Cc1ccc(S(=O)(=O)Nc2ccc3c(c2)CCC3)cc1C | inconclusive: 14.1 µM [activator, single point] | – |
| CC1(C)C(c2cccs2)=[N+]([O-])C2(CCCCC2=O)N1O (stereo not given) | inconclusive: 10 µM [activator, partial curve] | – |
| C/C(=N\NC(=O)c1c(Cl)c(C)nn1C)c1cccc(NC(=O)c2cccc(F)c2)c1 | – | inactive: 1.1% |
| O=C(Cc1c(Cl)cccc1Cl)Nc1ccncc1 | – | inactive: 2.88% |
| O=C(c1ccc(Br)cc1)C(CN1CCOCC1)c1ccccc1 (stereo not given) | – | inactive: -29.2% |
| COc1ccccc1CNC(=O)c1ccc(-c2ccccc2Cl)o1 | inconclusive: 22.4 µM [activator, single point] | – |

| Compound | Potency | growth rescue (activation) |
| --- | --- | --- |
| CCc1ccc(OCCCCCn2ccnc2)cc1 | – | inactive: -11% |
| Cc1sc2ncnc(SCC(=O)NC(C)C(C)C)c2c1C (stereo not given) | inconclusive: 11.2 µM [activator, partial curve] | – |
| Cc1ccc(NC(=O)CCc2c(C)nn(-c3ccc(N4CCCCC4)nn3)c2C)cc1C | inconclusive: 31.6 µM [activator, partial curve] | – |
| CCOC(=O)/C(C#N)=C/c1c(N2CCN(c3ccccc3)CC2)nc2ccccn2c1=O | inconclusive: 5.01 µM [activator, partial curve] | – |
| Nc1nc(=S)[nH]c2c1C1(CCCCC1)Cc1ccccc1-2 | inconclusive: 5.62 µM [activator, single point] | – |
| Cc1nc2ccc(S(=O)(=O)Nc3cccc(-c4nc5cccnc5s4)c3)cc2s1 | active: 15.8 µM | – |
| Cc1cccc2c1-c1sc(C(=O)NCCCN3CCCC(C)C3)cc1CO2 (stereo not given) | – | inactive: -12.7% |
| Cc1nc2ccccn2c1C(=O)CSc1ccccc1Cl | – | inactive: 4.95% |
| COc1ccc(C(=O)NC(=S)Nc2ccc(CN3CCOCC3)cc2)cc1Cl | – | inactive: -7.26% |
| CCCn1nnc(NC(=O)c2ccc(-c3cccc(Cl)c3)o2)n1 | – | inactive: 0.972% |
| CCO/N=C(/C)c1c(O)c(C)c(-c2ccccc2)n(-c2ccccc2)c1=O | inconclusive: 14.1 µM [activator, single point] | – |
| C=CCc1c(C)nc(-c2ccccc2)nc1N/N=C/c1ccccc1 | – | inactive: -1.21% |
| Cc1cccc(C(=O)N2CCC(=O)N(C(COCc3cccc(Cl)c3)Cc3ccccc3)CC2)c1 (stereo not given) | inconclusive: 15.8 µM [activator, single point] | – |
| CN(CC(=O)Nc1ccc(Cl)cc1)c1ccc(S(=O)(=O)N2CCCCC2)cc1[N+](=O)[O-] | inconclusive: 17.8 µM [activator, single point] | – |
| N#CC1=C(N)C2=CCCC[C@H]2[C@H](c2ccc(Br)cc2)C1(C#N)C#N | inconclusive: 10 µM [activator, partial curve] | – |
| COc1ccc(/C=C/C(=O)NC(=S)NNC(=O)Cc2cccs2)cc1 | – | inactive: -8.85% |
| O=C(Nc1ccccc1N1CCCC1)c1cccc(-c2cc3ccccc3oc2=O)c1 | inconclusive: 10 µM [activator, partial curve] | – |
| Cc1ccccc1-c1nc(CS(=O)(=O)CC(=O)NC2CCCCC2C)c(C)o1 (stereo not given) | inconclusive: 20 µM [activator, partial curve] | – |
| C=CCn1c(SCc2ccccc2F)nc2cc(C(=O)O)ccc2c1=O | inconclusive: 8.91 µM [activator, partial curve, poor fit] | – |
| CC(NC(=O)C1CC=CCC1C(=O)O)C1CC2CCC1C2 (stereo not given) | – | inactive: -3.06% |
| COc1ccc(C(=O)NCCCN2CCOCC2)cc1 | – | inactive: 0.0422% |
| CC(C)Cc1nc(N2CCN(C(=O)c3ccco3)CC2)c(C#N)c2c1CCC2 | inconclusive: 7.08 µM [activator, partial curve] | – |

Rewritten tab-delimited: entries from further up.
Compound	Potency	growth rescue (activation)
Nc1nc(=S)[nH]c2c1C1(CCCCC1)Cc1ccccc1-2	inconclusive: 5.62 µM [activator, single point]	–
Cc1nc2ccccn2c1C(=O)CSc1ccccc1Cl	–	inactive: 4.95%
CCCn1nnc(NC(=O)c2ccc(-c3cccc(Cl)c3)o2)n1	–	inactive: 0.972%
N#CC1=C(N)C2=CCCC[C@H]2[C@H](c2ccc(Br)cc2)C1(C#N)C#N	inconclusive: 10 µM [activator, partial curve]	–
